From publication PMC9832878 come the findings set out here.

Amino acid sequences for entries named in this document (tags omitted).
UniProt Q40168: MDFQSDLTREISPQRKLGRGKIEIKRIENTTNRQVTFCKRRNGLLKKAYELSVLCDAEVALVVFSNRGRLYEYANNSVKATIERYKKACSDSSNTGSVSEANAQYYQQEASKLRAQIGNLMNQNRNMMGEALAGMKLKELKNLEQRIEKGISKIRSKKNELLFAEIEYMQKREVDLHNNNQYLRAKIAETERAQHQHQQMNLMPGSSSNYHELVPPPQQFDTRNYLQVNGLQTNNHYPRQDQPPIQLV

No constants are given. Whether binding was seen depends on the method and setting. Tags and fused reporters may be left off the sequences shown.

The target of this assay is T1, SlGASA1 fused to the GAL4 DNA-binding domain (tomato (Solanum lycopersicum)) (UniProt P27057).
T1 sequence: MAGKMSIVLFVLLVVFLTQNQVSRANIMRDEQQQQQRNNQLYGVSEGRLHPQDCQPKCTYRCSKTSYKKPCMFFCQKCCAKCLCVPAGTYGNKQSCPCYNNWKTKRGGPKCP
As to the kind of experiment: two-hybrid; SlGASA1 on the GAL4 DNA-binding domain (pGBKT7) as bait, ripening regulators on the GAL4 activation domain (pGADT7) as preys; yeast AH109; growth on SD-Leu-Trp-His-Ade.

Take “TAG1 fused to the GAL4 activation domain (from UniProt Q40168 1-248)”: the binding result was “no binding”.
